No constants are given. Whether binding was seen depends on the method and setting. Some binding calls cover weakened binding; strength is not graded here. Sequences can lack the tags named with a protein.
Target: T1, HA-PKCμ (amino-terminal hemagglutinin epitope-tagged PKCμ) (UniProt Q15139)
T1 sequence: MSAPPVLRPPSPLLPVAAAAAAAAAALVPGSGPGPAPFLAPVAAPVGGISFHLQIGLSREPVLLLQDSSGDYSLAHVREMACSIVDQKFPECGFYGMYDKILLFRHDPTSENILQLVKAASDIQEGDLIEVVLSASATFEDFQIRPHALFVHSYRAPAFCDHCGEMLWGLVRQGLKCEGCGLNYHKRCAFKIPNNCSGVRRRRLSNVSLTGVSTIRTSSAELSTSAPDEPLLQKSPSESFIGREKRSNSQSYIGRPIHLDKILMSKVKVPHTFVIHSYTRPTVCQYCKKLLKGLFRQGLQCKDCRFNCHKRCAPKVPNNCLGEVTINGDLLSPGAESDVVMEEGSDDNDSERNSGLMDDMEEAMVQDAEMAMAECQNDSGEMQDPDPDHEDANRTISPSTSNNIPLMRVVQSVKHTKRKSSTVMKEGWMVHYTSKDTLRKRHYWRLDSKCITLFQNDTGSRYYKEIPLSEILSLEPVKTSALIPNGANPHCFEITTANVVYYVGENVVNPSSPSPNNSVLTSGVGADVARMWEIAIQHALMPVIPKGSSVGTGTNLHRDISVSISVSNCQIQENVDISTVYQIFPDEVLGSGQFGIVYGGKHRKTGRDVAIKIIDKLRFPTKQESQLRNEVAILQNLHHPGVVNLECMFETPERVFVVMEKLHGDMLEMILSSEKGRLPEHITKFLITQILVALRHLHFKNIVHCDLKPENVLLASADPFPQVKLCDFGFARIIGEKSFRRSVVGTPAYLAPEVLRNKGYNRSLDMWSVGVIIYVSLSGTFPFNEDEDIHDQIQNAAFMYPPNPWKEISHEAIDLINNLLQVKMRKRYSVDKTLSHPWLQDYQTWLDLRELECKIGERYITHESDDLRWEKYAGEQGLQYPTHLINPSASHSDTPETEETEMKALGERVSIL
Experiment: pull-down; HA-PKCμ immunoprecipitated from transfected HEK 293T cells and kept on HA antibody agarose beads; GST-Cx43 or GST in 125 mM Tris-HCl pH 8.0, 150 mM NaCl added, 3 hours at 4°C; beads washed three times with cold PBS; western blot for GST and HA; both purified

Chains of the proteins cited; added tags and fusions are not shown.
UniProt P17302: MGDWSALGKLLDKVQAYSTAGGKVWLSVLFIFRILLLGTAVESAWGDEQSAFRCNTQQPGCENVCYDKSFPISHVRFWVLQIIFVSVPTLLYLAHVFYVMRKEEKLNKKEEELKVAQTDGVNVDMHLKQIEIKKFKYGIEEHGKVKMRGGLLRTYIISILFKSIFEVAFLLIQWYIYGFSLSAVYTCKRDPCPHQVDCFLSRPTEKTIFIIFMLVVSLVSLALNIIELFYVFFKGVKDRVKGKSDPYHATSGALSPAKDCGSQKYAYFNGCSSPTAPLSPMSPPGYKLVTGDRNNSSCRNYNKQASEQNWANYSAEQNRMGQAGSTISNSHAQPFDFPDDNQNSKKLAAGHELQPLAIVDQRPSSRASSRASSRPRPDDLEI

GST-Cx43 (glutathione S-transferase fused to the amino-terminus of full-length Connexin 43) (from UniProt P17302 1-382)
binding: binds

From publication PMC10875573
